In this test the target is Angiotensin-converting enzyme (Homo sapiens, UniProt P12821). The test can be described thus: Biological activity was measured against Angiotensin I converting enzyme. The following applies: read-out: Log 1/IC50 (converted).

The chains behind the UniProt entries cited, without tags or fusion partners.
UniProt P12821, whole entry: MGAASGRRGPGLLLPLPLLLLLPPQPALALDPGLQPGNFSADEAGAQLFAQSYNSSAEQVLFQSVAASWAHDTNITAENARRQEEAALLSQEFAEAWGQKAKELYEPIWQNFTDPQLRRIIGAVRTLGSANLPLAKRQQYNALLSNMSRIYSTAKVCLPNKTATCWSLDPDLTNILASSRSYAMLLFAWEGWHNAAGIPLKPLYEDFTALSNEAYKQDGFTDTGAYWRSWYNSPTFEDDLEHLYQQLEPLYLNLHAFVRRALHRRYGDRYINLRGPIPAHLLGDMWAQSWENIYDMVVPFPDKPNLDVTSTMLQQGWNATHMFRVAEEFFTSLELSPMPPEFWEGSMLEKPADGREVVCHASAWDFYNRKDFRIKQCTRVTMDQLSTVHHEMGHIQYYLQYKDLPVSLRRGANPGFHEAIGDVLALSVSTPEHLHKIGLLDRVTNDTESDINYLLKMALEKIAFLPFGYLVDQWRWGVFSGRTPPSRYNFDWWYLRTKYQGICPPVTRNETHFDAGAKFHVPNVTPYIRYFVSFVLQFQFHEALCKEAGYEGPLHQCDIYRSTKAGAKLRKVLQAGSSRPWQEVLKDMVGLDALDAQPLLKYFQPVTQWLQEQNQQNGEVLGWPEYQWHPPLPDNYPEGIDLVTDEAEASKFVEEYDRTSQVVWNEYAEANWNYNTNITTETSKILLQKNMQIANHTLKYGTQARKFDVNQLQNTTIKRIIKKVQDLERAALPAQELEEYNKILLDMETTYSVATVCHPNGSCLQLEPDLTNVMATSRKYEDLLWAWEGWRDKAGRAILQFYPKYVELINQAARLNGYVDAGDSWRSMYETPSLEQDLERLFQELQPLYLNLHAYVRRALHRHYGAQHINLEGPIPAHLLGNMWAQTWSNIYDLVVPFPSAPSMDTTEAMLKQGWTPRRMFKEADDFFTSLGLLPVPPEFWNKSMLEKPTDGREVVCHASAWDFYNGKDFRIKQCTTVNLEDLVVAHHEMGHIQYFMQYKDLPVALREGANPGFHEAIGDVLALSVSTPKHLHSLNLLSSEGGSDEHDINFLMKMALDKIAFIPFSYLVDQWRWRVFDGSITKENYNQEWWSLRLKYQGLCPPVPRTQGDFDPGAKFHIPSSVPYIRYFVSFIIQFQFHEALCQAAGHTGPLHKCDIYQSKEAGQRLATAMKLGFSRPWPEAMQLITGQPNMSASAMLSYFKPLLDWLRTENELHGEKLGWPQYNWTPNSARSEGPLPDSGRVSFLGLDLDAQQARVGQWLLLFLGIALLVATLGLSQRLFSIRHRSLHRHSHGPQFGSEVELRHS

As to `N[C@@H](Cc1ccc(O)cc1)C(=O)NCC(=O)O`, the IC50 was 2000 µM.

The values are drawn from ChEMBL document CHEMBL1128468, “Amino acid side chain descriptors for quantitative structure-activity relationship studies of peptide analogues” (J Med Chem, 1995).
